# Paper PMC8384837
# Residue numbers refer to the chain shown, from its start. The list shows a part of the results. For some assays here: At the low end of the ranking the order means little.
# Tests used:
# Conditions in all cases: yeast three-hybrid, YBZ-1, SC-Leu-His + 0.5 mM 3-AT, 4 days
# [1] = target: T1, PUM1 PUF domain R5-KPC C1007K + R1008P + Q1011C (UniProt Q14671)
# T1 sequence: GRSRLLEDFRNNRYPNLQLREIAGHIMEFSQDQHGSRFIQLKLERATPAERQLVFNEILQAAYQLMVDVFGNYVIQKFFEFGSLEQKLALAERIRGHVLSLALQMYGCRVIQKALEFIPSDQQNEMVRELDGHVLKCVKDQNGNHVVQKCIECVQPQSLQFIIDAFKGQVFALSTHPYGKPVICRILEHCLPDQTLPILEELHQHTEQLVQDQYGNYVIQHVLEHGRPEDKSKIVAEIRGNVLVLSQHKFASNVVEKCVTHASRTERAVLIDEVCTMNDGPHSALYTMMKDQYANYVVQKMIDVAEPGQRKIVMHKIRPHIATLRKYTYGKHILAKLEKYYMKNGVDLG
# [2] = target: T2, PUM1 PUF domain R5-KPI C1007K + R1008P + Q1011I (UniProt Q14671)
# T2 sequence: T1 sequence with C184I
# [3] = target: T3, PUM1 PUF domain R5-KPL C1007K + R1008P + Q1011L (UniProt Q14671)
# T3 sequence: T1 sequence with C184L
# [4] = target: T4, PUM1 PUF domain R5-KPV C1007K + R1008P + Q1011V (UniProt Q14671)
# T4 sequence: T1 sequence with C184V
# [5] = target: T5, PUM1 PUF domain R5-KQD C1007K + R1008Q + Q1011D (UniProt Q14671)
# T5 sequence: T1 sequence with P181Q, C184D
# [6] = target: T6, PUM1 PUF domain R5-KQG C1007K + R1008Q + Q1011G (Homo sapiens) (UniProt Q14671)
# T6 sequence: T1 sequence with P181Q, C184G
# [7] = target: T7, PUM1 PUF domain R5-KQV C1007K + R1008Q + Q1011V (UniProt Q14671)
# T7 sequence: T1 sequence with P181Q, C184V
# [8] = target: T8, PUM1 PUF domain R5-KRA C1007K + Q1011A (Homo sapiens) (UniProt Q14671)
# T8 sequence: T1 sequence with P181R, C184A
# [9] = target: T9, PUM1 PUF domain R5-KRD C1007K + Q1011D (Homo sapiens) (UniProt Q14671)
# T9 sequence: T1 sequence with P181R, C184D
# [10] = target: T10, PUM1 PUF domain R5-KRF C1007K + Q1011F (Homo sapiens) (UniProt Q14671)
# T10 sequence: T1 sequence with P181R, C184F
# [11] = target: T11, PUM1 PUF domain R5-KRK C1007K + Q1011K (Homo sapiens) (UniProt Q14671)
# T11 sequence: T1 sequence with P181R, C184K
# [12] = target: T12, PUM1 PUF domain R5-KRP C1007K + Q1011P (Homo sapiens) (UniProt Q14671)
# T12 sequence: T1 sequence with P181R, C184P
# [13] = target: T13, PUM1 PUF domain R5-KRR C1007K + Q1011R (Homo sapiens) (UniProt Q14671)
# T13 sequence: T1 sequence with P181R, C184R
# [14] = target: T14, PUM1 PUF domain R5-KRV C1007K + Q1011V (Homo sapiens) (UniProt Q14671)
# T14 sequence: T1 sequence with P181R, C184V
# [15] = target: T15, PUM1 PUF domain R5-KRW C1007K + Q1011W (UniProt Q14671)
# T15 sequence: T1 sequence with P181R, C184W
# [16] = target: T16, PUM1 PUF domain R5-KSC C1007K + R1008S + Q1011C (Homo sapiens) (UniProt Q14671)
# T16 sequence: T1 sequence with P181S
# [17] = target: T17, PUM1 PUF domain R5-KSD C1007K + R1008S + Q1011D (UniProt Q14671)
# T17 sequence: T1 sequence with P181S, C184D
# [18] = target: T18, PUM1 PUF domain R5-KSG C1007K + R1008S + Q1011G (Homo sapiens) (UniProt Q14671)
# T18 sequence: T1 sequence with P181S, C184G
# [19] = target: T19, PUM1 PUF domain R5-KSK C1007K + R1008S + Q1011K (Homo sapiens) (UniProt Q14671)
# T19 sequence: T1 sequence with P181S, C184K
# [20] = target: T20, PUM1 PUF domain R5-KSR C1007K + R1008S + Q1011R (Homo sapiens) (UniProt Q14671)
# T20 sequence: T1 sequence with P181S, C184R
sequence,measurement,setting,value
GGCUAGAACUAGUGGAUCCCCCGGCGCCCGGCGGCUCGAGCCCGGGUAAGUGUAAAUAGUCUGCAUGCCGCCGGGCGCCAUGCCUGCAGGUCGACUCUAGAAAACAUG,binding signal (log2 enrichment (interaction score)),[1],-5.11
same,binding signal (log2 enrichment (interaction score)),[2],-3.94
same,binding signal (log2 enrichment (interaction score)),[3],-2.44
same,binding signal (log2 enrichment (interaction score)),[4],< -7.28
same,binding signal (log2 enrichment (interaction score)),[5],< -5.73
same,binding signal (log2 enrichment (interaction score)),[6],-1.36
same,binding signal (log2 enrichment (interaction score)),[7],< -5.88
same,binding signal (log2 enrichment (interaction score)),[8],-1.58
same,binding signal (log2 enrichment (interaction score)),[9],0.59
same,binding signal (log2 enrichment (interaction score)),[10],0.19
same,binding signal (log2 enrichment (interaction score)),[11],0.33
same,binding signal (log2 enrichment (interaction score)),[12],-0.53
same,binding signal (log2 enrichment (interaction score)),[13],0.16
same,binding signal (log2 enrichment (interaction score)),[14],0.16
same,binding signal (log2 enrichment (interaction score)),[15],< -6.5
same,binding signal (log2 enrichment (interaction score)),[16],0.17
same,binding signal (log2 enrichment (interaction score)),[17],< -5.96
same,binding signal (log2 enrichment (interaction score)),[18],0.06
same,binding signal (log2 enrichment (interaction score)),[19],-0.46
same,binding signal (log2 enrichment (interaction score)),[20],-1.31

# An excerpt of these results, as tab-separated lines:
sequence	measurement	setting	value
GGCUAGAACUAGUGGAUCCCCCGGCGCCCGGCGGCUCGAGCCCGGGUAAGUGUAAAUAGUCUGCAUGCCGCCGGGCGCCAUGCCUGCAGGUCGACUCUAGAAAACAUG	binding signal (log2 enrichment (interaction score))	[1]	-5.11
same	binding signal (log2 enrichment (interaction score))	[15]	< -6.5
